# These are yes or no findings as the source states them, for the method shown. Some results given as binding are weak or reduced against the parent protein; the word gives no strength.
# T1: recombinant human IL-1α (human, UniProt P01583 113-271)
# T1 sequence: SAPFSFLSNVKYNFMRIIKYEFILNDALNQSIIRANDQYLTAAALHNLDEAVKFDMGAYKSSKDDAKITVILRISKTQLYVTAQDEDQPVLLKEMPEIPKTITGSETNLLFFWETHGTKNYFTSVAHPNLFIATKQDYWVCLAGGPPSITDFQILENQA
# B1: murine anti-human IL-1α monoclonal antibody 3D12 (antibody, V domains shown)
# VH: QIQLVQSGPELKKPGETVKISCKASGYTFRNYGMNWVKQAPGKDLKRMAWINTYTGESTYADDFKGRFAFSLETSASTAYLQINNLKNEDTATYFCARGIYYYGSSYAMDYWGQGTSVTVSS
# VL: IQMTQTTSSLSASLGDRVTISCRASQDISNCLNWYQQKPDGTVKLLIYYTSRLHSGVPSRFSGSGSGTDYSLTISNLEQEDIATYFCQQGKTLPYAFGGGTKLEINR
# Target: T1, recombinant human IL-1α
# Test: ELISA screen of hybridoma supernatants
binder,measurement,value
B1,binding,binds
